# In patent US10603335B2, “Cancer treatment combination compositions, methods and uses” (Board of Supervisors of Louisiana State University and …, priority 2016, dated 2020):
# Some results were stated once for a whole list of compounds, not compound by compound.
# Test system: cleaved PARP, XIAP and cIAP2 in PATC53 cells
# Test: Western blot of apoptosis markers, PATC53
# Assay type: cell-based
# Details: 24 h post-treatment
# Experimental: PATC53 cells were treated as described and Western blot was perform in order to detect apoptosis markers (cleaved PARP) and inhibitors of apoptosis (XIAP and cIAP2) 24 h post-treatment. Actin was used as loading controls.
# PATC53 cells were treated as presented and Western blot was perform in order to detect apoptosis markers (cleaved PARP) and inhibitors of apoptosis (XIAP and cIAP2) 48 h post-treatment. Actin was used as loading controls.
# Pancreatic cancer cells were collected after trypsinization and seeded in 12-well plates for 24 h before treatments. Treatments were performed as described in the Figure legends. Following treatment whole-cell lysates were collected in Laemmli buffer and analyzed by Western blot. The following primary antibodies were used: cleaved PARP, c-IAP2, XIAP, cleaved Parp-1 (all from Cell Signaling), actin (Santa Cruz).
row,Compound,concentration from which markers of apoptosis were detected [µM]
1,"COc1cc(/C=C/C(=O)CC(=O)/C=C/c2ccc(OC(=O)CCCC(=O)NCCCC[C@@H](NC(=O)[C@H](Cc3ccc(O)cc3)NC(=O)[C@H](CO)NC(=O)[C@H](Cc3c[nH]c4ccccc34)NC(=O)[C@H](Cc3c[nH]cn3)NC(=O)[C@@H]3CCC(=O)N3)C(=O)N[C@@H](CC(C)C)C(=O)N[C@@H](CCCNC(=N)N)C(=O)N3CCC[C@H]3C(=O)NCC(N)=O)c(OC)c2)ccc1O [LHRH-curcumin, [DLys6]-LHRH-Curcumin]",≥ 50
2,COc1cc(/C=C/C(=O)CC(=O)/C=C/c2ccc(O)c(OC)c2)ccc1O [curcumin],≥ 50
